Experimental data as given in publication PMC8565326, “Structural dissection of sequence recognition and catalytic mechanism of human LINE-1 endonuclease”.
Results are given in words; binding and its absence hold for the method and conditions named.

Biological target: LINE-1 endonuclease (endonuclease domain of human LINE-1 ORF2p), wild type (human) (UniProt O00370)
Assay: AUC; sedimentation velocity, 20°C, 35 000 rpm, 25 mM HEPES pH 7.5, 100 mM NaCl, 1 mM TCEP, absorbance at 280 nm, continuous c(s) distribution model (SEDFIT); both purified

LINE-1 endonuclease (endonuclease domain of human LINE-1 ORF2p), wild type (from UniProt O00370 1-238) (domain or fragment)
binding: no binding (tested: sub-millimolar concentrations)
